The source of these data is publication PMC7271317.

No constants are given. Whether binding was seen depends on the method and setting. Binding can be weak; no strength is given. Where a sequence is shown, tags or fusion partners need not be part of it.

Assay [1] deals with T1, motor (Mot) domain of HSET fused to GFP (aa 145-673) (human) (UniProt Q9BW19).
T1 sequence: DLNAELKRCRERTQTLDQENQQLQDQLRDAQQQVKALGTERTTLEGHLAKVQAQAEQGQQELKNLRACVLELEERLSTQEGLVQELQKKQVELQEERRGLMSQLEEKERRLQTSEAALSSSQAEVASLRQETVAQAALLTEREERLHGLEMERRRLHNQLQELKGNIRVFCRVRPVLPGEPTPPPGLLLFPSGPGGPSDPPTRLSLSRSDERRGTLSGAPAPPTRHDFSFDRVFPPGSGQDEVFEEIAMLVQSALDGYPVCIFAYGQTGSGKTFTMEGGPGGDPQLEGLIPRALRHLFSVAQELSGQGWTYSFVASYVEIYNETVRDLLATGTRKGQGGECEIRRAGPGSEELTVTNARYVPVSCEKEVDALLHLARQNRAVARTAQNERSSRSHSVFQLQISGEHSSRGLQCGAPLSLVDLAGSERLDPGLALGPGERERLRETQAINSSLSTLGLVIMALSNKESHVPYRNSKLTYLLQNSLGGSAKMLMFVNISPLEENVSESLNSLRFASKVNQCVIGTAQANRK
The assay can be described thus: pull-down; 20 μl GFP-Trap beads with FL, tail or motor GFP-HSET incubated with 300 μl purified recombinant IFT88/70/52/46 for 1 h at RT, five washes with buffer containing 0.2% NP-40, immunoblot; GFP-Trap beads alone as control; both purified. On the technique in general: A western blot detects proteins with antibodies after separation by electrophoresis.

Assay [2] addresses T2, recombinant full-length (FL) GFP-HSET (human) (UniProt Q9BW19).
T2 sequence: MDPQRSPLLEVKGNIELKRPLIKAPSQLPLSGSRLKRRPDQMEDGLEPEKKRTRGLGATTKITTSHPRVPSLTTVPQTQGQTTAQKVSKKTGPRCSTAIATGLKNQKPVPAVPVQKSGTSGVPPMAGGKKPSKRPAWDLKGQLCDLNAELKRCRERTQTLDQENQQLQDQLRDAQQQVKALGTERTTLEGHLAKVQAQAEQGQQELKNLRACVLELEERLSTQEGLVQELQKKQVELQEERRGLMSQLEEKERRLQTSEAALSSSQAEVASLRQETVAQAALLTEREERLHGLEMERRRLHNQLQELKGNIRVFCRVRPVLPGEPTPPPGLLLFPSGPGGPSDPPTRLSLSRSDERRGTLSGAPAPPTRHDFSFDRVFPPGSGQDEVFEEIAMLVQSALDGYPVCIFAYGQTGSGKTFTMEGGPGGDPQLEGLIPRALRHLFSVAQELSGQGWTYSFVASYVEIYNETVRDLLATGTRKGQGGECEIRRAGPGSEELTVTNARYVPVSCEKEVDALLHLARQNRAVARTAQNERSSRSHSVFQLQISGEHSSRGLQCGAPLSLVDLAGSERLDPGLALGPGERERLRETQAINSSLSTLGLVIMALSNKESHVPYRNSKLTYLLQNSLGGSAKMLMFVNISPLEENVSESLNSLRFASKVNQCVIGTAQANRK
Described as above.

As to “purified recombinant IFT-B subcomplex made of IFT88/70/52/46”, the binding result in assay [1] and in assay [2] was “binds” each time.
